Source: patent publication US20060135516A1, “3-(Carbonyl) 1h-indazole compounds as cyclin dependent kinases (cdk) inhibitors” (Astex Technology, Ltd., priority 2002, published 2006)
Some results were stated once for a whole list of compounds, not compound by compound.

Biological target: T1, CDK2/CyclinA (Homo sapiens, UniProt P24941)
T1 construct: purchased Upstate Biotechnology
Test: Measurement of CDK2 Kinase Inhibitory Activity (IC50)
Assay type: biochemical
Settings: for % inhibition of the CDK2 activity: at a concentration of 0.03 micromoles, stated as the alternative to IC50 less than 20 micromoles; for IC50: read-out: IC50 (concentration of test compound required to inhibit 50% of the CDK2 activity), stated as an alternative: IC50 less than 20 micromoles OR at least 50% inhibition at 0.03 micromoles

COC(=O)c1n[nH]c2ccc3nc(N)sc3c12 [Example 1D, 2-Amino-6H-pyrazolo[4′,3′:3,4]benzo[1,2-d]thiazole-8-carboxylic acid methyl ester]
% inhibition of the CDK2 activity: at least 50% | IC50: < 20 µM

CNS(=O)(=O)Cc1ccc(NC(=O)c2n[nH]c3ccc4nc(N)sc4c23)cc1 [Example 1G, 2-Amino-6H-pyrazolo[4′,3′:3,4]benzo[,1,2-d]thiazole-8-carboxylic acid (4-methylsulfamoylmethyl-phenyl)-amide]
% inhibition of the CDK2 activity: at least 50% | IC50: < 20 µM

CC(=O)NCc1ccc(NC(=O)c2n[nH]c3ccc4nc(N)sc4c23)cc1 [Example 4, 2-Amino-6H-pyrazolo[4′,3′:3,4]benzo[1,2-d]thiazole-8-carboxylic acid [4-(acetylamino-methyl)-phenyl]-amide]
% inhibition of the CDK2 activity: at least 50% | IC50: < 20 µM

Nc1nc2ccc3[nH]nc(C(=O)Nc4ccccc4)c3c2s1 [Example 5, 2-Amino-6H-pyrazolo[4′,3′:3,4]benzo[1,2-d]thiazole-8-carboxylic acid phenylamide]
% inhibition of the CDK2 activity: at least 50% | IC50: < 20 µM

Nc1nc2ccc3[nH]nc(C(=O)Nc4ccc(S(N)(=O)=O)cc4)c3c2s1 [Example 6, 2-Amino-6H-pyrazolo[4′,3′:3,4]benzo[1,2-d]thiazole-8-carboxylic acid (4-sulfamoyl-phenyl)-amide]
% inhibition of the CDK2 activity: at least 50% | IC50: < 20 µM

CCOC(=O)N1CCC(NC(=O)c2n[nH]c3ccc4nc(N)sc4c23)CC1 [Example 7, 4-[(2-Amino-6H-pyrazolo[4′,3′:3,4]benzo[1,2-d]thiazole-8-carbonyl)-amino]-piperidine-1-carboxylic Acid Ethyl Ester]
% inhibition of the CDK2 activity: at least 50% | IC50: < 20 µM

Nc1nc2ccc3[nH]nc(C(=O)NC4CCCCC4)c3c2s1 [Example 8, 2-Amino-6H-pyrazolo[4′,3′:3,4]benzo[1,2-d]thiazole-8-carboxylic acid cyclohexylamide]
% inhibition of the CDK2 activity: at least 50% | IC50: < 20 µM

Nc1nc2ccc3[nH]nc(C(=O)NCCc4c[nH]cn4)c3c2s1 [Example 9, 2-Amino-6H-prazolo[4′,3′:3,4]benzo[1,2-d]thiazole-8-carboxylic acid [2-(1H-imidazol-4-yl)-ethyl]-amide]
% inhibition of the CDK2 activity: at least 50% | IC50: < 20 µM

Nc1nc2ccc3[nH]nc(C(=O)NCc4ccccc4)c3c2s1 [Example 10, 2-Amino-6H-pyrazolo[4′,3′:3,4]benzo[1,2-d]thiazole-8-carboxylic acid benzylamide]
% inhibition of the CDK2 activity: at least 50% | IC50: < 20 µM

Nc1nc2ccc3[nH]nc(C(=O)NC4CCNCC4)c3c2s1 [Example 11, 2-Amino-6H-pyrazolo[4′,3′:3,4]benzo[1,2-d]thiazole-8-carboxylic acid piperidin-4-ylamide]
% inhibition of the CDK2 activity: at least 50% | IC50: < 20 µM

Nc1nc2ccc3[nH]nc(C(=O)NCCN4CCOCC4)c3c2s1 [Example 12, 2-Amino-6H-:pyrazolo[4′,3′:3,4]benzo[1,2-d]thiazole-8-carboxylic acid (2-morpholin-4-yl-ethyl)-amide]
% inhibition of the CDK2 activity: at least 50% | IC50: < 20 µM

Nc1nc2ccc3[nH]nc(C(=O)Nc4ccc(F)cc4)c3c2s1 [Example 13, 2-Amino-6H-pyrazolo[4′,3′:3,4]benzo[1,2-d]thiazole-8-carboxylic acid (4-fluoro-phenyl)-amide]
% inhibition of the CDK2 activity: at least 50% | IC50: < 20 µM

Nc1nc2ccc3[nH]nc(C(=O)NC4CCCC4)c3c2s1 [Example 14, 2-Amino-6H-pyrazolo[4′,3′:3,4]benzo[1,2-d]thiazole-8-carboxylic acid cyclopentylamide]
% inhibition of the CDK2 activity: at least 50% | IC50: < 20 µM

Nc1nc2ccc3[nH]nc(C(=O)NCCCN4CCOCC4)c3c2s1 [Example 15, 2-Amino-6H-pyrazolo[4′,3′:3,4]benzo[1,2-d]thiazole-8-carboxylic acid (3-morpholin-4-yl-propyl)-amide]
% inhibition of the CDK2 activity: at least 50% | IC50: < 20 µM

Nc1nc2ccc3[nH]nc(C(=O)NC[C@H]4CCCC[C@H]4O)c3c2s1 [Example 16, 2-Amino-6H-pyrazolo[4′,3′:3,4]benzo[1,2-d]thiazole-8-carboxylic acid (2-hydroxy-cyclohexylmethyl)-amide]
% inhibition of the CDK2 activity: at least 50% | IC50: < 20 µM

CC(C)(C)OC(=O)N1CCC(CNC(=O)c2n[nH]c3ccc4nc(N)sc4c23)CC1 [Example 17, 4-{[(2-Amino-6H-pyrazolo[4′,3′:3,4]benzo[1,2-d]thiazole-8-carbonyl)-amino]-methyl}-piperidine-1-carboxylic acid tert-butyl ester]
% inhibition of the CDK2 activity: at least 50% | IC50: < 20 µM

CC(C)(C)OC(=O)N1CCCC(NC(=O)c2n[nH]c3ccc4nc(N)sc4c23)C1 (stereo not drawn) [Example 18]
% inhibition of the CDK2 activity: at least 50% | IC50: < 20 µM

Nc1nc2ccc3[nH]nc(C(=O)NC4CCCNC4)c3c2s1 (stereo not drawn) [Example 19, 2-Amino-6H-pyrazolo[4′,3′:3,4]benzo[1,2-4]thiazole-8-carboxylic acid piperidin-3-ylamide]
% inhibition of the CDK2 activity: at least 50% | IC50: < 20 µM

Nc1nc2ccc3[nH]nc(C(=O)NCc4ccncc4)c3c2s1 [Example 20, 2-Amino-6H-pyrazolo[4′,3′:3,4]benzo[1,2-d]thiazole-8-carboxylic acid (pyridin-4-ylmethyl)-amide]
% inhibition of the CDK2 activity: at least 50% | IC50: < 20 µM

CN1CCC(NC(=O)c2n[nH]c3ccc4nc(N)sc4c23)CC1 [Example 21, 2-Amino-6H-pyrazolo[4′,3′:3,4]benzo[1,2-d]thiazole-8-carboxylic acid (1-methyl-piperidin-4-yl)-amide]
% inhibition of the CDK2 activity: at least 50% | IC50: < 20 µM

CN1CCN(c2ccc(CNC(=O)c3n[nH]c4ccc5nc(N)sc5c34)cc2)CC1 [Example 22, 2-Amino-6H-pyrazolo[4′,3′:3,4]benzo[1,2-d]thiazole-8-carboxylic acid 4-(4-methyl-piperazin-1-yl)-benzylamide]
% inhibition of the CDK2 activity: at least 50% | IC50: < 20 µM

Nc1nc2ccc3[nH]nc(C(=O)NCC4CCCCC4)c3c2s1 [Example 23, 2-Amino-6H-pyrazolo[4′,3′:3,4]benzo[1,2-d]thiazole-8-carboxylic acid cyclohexylmethyl-amide]
% inhibition of the CDK2 activity: at least 50% | IC50: < 20 µM

Nc1nc2ccc3[nH]nc(C(=O)N[C@H]4CC[C@H](O)CC4)c3c2s1 [Example 24, 2-Amino-6H-pyrazolo[4′,3′:3,4]benzo[1,2-d]thiazole-8-carboxylic acid (4-hydroxy-cyclohexyl)-amide]
% inhibition of the CDK2 activity: at least 50% | IC50: < 20 µM

Cn1cnc(CCNC(=O)c2n[nH]c3ccc4nc(N)sc4c23)c1 [Example 25, 2-Amino-6H-pyrazolo[4′,3′:3,4]benzo[1,2-d]thiazole-8-carboxylic acid [2-(1-methyl-1H-imidazol-4-yl)-ethyl]-amide]
% inhibition of the CDK2 activity: at least 50% | IC50: < 20 µM

Nc1nc2ccc3[nH]nc(C(=O)NCC4CCOCC4)c3c2s1 [Example 26, 2-Amino-6H-pyrazolo[4′,3′:3,4]benzo[1,2-d]thiazole-8-carboxylic acid (tetrahydro-pyran-4-ylmethyl)-amide]
% inhibition of the CDK2 activity: at least 50% | IC50: < 20 µM

Cc1cc(CNC(=O)c2n[nH]c3ccc4nc(N)sc4c23)no1 [Example 27, 2-Amino-6H-pyrazolo[4′,3′:3,4]benzo[1,2-d]thiazole-8-carboxylic acid (5-methyl-isoxazol-3-ylmethyl)-amide]
% inhibition of the CDK2 activity: at least 50% | IC50: < 20 µM

Nc1nc2ccc3[nH]nc(C(=O)NC4CCOCC4)c3c2s1 [Example 28, 2-Amino-6H-pyrazolo[4′,3′:3,4]benzo[1,2-4]thiazole-8-carboxylic acid (tetrahydro-pyran-4-yl)-amide]
% inhibition of the CDK2 activity: at least 50% | IC50: < 20 µM

Nc1nc2ccc3[nH]nc(C(=O)Nc4cc(F)cc(F)c4)c3c2s1 [Example 29, 2-Amino-6H-pyrazolo[4′,3′:3,4]benzo[1,2-d]thiazole-8-carboxylic acid (3,5-difluoro-phenyl)-amide]
% inhibition of the CDK2 activity: at least 50% | IC50: < 20 µM

NC(=O)c1n[nH]c2ccc3nc(N)sc3c12 [Example 30, 2-Amino-6H-pyrazolo[4′,3′:3,4]benzo[1,2-d]thiazole-8-carboxylic acid amide]
% inhibition of the CDK2 activity: at least 50% | IC50: < 20 µM

COc1ccc(CNC(=O)c2n[nH]c3ccc4nc(N)sc4c23)cc1 [Example 31, 2-Amino-6H-pyrazolo[4′,3′:3,4]benzo[1,2-d]thiazole-8-carboxylic acid 4-methoxy-benzyl amide]
% inhibition of the CDK2 activity: at least 50% | IC50: < 20 µM

CCNc1nc2ccc3[nH]nc(C(=O)Nc4ccc(F)cc4)c3c2s1 [Example 32, 2-ethylamino-6H-pyrazolo[4′,3′:3, 4]benzo[1,2-d]thiazole-8-carboxylic acid (4-fluoro-phenyl)-amide]
% inhibition of the CDK2 activity: at least 50% | IC50: < 20 µM

CCNc1nc2ccc3[nH]nc(C(=O)Nc4ccc(CS(=O)(=O)NC)cc4)c3c2s1 [Example 33, 2-Ethylamino-6H-pyrazolo[4′,3′:3,4]benzo[1,2-d]thiazole-8-carboxylic acid (4-methylsulfamoylmethyl-phenyl)-amide]
% inhibition of the CDK2 activity: at least 50% | IC50: < 20 µM

Cc1nc2ccc3[nH]nc(C(=O)Nc4ccc(F)cc4)c3c2s1 [Example 34, 2-Methyl-6H-pyrazolo[4′,3′:3,4]benzo[1,2-d]thiazole-8-carboxylic acid (4-fluoro-phenyl)-amide]
% inhibition of the CDK2 activity: at least 50% | IC50: < 20 µM
